Experimental data taken from the supplement of paper PMC7666118.
The other results are listed elsewhere or left out.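 Rule for the calls: active = dose-dependent thermal stabilisation significant by F-test of dose-response against flat model at 10% FDR; inactive = not significant.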

The chains behind the UniProt entries cited, without tags or fusion partners. Where a name states a change or a piece, a line headed by the entry shows the natural chain unless it says otherwise.
UniProt Q9UBB5, whole entry: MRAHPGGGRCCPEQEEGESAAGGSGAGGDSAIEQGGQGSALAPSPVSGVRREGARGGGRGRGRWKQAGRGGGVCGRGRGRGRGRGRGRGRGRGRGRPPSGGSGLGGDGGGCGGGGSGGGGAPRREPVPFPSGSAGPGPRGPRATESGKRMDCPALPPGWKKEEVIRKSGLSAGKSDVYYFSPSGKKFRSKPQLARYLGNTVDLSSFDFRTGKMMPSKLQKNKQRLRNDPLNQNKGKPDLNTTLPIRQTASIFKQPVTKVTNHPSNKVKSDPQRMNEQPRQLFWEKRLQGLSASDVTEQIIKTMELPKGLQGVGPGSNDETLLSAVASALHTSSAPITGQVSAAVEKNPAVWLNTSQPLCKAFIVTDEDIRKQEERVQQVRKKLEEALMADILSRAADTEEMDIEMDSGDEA
UniProt O15021: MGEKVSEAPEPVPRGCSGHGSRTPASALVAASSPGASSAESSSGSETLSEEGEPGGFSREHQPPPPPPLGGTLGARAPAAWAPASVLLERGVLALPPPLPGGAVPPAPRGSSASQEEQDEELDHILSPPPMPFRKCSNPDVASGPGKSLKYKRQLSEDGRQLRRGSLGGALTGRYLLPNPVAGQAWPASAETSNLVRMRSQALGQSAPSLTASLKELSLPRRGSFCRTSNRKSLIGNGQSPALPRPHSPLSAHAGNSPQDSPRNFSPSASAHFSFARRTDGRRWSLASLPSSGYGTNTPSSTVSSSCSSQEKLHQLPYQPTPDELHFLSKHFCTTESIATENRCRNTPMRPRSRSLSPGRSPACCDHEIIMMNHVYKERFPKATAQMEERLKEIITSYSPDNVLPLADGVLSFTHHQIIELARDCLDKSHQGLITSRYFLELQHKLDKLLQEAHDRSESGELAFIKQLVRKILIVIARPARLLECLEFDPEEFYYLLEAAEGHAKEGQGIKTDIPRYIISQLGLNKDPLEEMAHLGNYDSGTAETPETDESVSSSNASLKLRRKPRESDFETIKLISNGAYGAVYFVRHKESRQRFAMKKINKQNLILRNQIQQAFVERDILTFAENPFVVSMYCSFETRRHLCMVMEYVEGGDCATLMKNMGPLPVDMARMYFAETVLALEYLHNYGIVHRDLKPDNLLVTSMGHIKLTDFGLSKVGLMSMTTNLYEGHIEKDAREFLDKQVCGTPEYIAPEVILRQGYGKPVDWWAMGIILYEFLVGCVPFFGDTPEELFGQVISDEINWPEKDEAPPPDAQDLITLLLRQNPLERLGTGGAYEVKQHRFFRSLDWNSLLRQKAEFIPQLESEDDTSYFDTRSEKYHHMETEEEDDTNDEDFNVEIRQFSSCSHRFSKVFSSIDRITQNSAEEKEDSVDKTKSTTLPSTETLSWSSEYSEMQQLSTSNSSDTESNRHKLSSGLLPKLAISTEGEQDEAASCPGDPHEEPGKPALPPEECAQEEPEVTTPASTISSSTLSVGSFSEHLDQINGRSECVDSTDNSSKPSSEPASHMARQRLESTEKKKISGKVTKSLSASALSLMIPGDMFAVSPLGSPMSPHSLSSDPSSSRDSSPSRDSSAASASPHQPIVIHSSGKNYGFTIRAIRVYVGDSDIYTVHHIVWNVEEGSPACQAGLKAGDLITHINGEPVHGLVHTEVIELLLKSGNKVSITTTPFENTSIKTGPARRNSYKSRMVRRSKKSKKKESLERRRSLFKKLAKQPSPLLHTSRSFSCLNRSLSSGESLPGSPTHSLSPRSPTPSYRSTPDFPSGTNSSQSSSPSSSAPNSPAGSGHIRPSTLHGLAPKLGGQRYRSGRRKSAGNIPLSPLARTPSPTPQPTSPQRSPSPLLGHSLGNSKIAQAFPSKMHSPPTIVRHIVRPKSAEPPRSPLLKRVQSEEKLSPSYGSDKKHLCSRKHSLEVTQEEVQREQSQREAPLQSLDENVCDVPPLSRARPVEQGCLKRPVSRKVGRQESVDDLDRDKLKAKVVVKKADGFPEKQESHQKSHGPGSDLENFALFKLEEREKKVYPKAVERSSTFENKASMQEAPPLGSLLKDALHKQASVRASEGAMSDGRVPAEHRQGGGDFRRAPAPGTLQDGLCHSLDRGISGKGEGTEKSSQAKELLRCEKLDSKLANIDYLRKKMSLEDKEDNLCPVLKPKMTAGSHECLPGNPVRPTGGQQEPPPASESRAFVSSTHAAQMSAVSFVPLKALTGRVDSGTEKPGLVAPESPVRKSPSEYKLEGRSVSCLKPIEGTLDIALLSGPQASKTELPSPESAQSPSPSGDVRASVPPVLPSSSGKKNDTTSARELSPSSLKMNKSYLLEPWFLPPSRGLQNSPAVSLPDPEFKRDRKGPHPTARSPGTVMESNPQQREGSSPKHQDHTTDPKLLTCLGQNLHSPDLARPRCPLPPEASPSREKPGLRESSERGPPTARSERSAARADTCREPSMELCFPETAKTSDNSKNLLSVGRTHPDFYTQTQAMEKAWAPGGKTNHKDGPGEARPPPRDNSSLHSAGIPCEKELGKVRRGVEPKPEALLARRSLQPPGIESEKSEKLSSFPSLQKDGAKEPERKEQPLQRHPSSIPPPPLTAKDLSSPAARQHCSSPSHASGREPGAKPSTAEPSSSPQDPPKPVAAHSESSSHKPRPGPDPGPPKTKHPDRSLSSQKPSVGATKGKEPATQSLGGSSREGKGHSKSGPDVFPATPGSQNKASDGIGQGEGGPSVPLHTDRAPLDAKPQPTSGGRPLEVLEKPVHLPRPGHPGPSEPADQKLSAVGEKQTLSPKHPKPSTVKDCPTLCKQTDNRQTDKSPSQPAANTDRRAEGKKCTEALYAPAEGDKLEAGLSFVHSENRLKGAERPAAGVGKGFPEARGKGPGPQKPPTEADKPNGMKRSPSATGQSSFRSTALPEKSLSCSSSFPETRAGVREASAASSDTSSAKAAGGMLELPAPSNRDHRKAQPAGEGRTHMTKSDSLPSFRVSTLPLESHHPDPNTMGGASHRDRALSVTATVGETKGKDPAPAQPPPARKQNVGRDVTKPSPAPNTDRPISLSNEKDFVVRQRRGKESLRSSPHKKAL
UniProt Q02078: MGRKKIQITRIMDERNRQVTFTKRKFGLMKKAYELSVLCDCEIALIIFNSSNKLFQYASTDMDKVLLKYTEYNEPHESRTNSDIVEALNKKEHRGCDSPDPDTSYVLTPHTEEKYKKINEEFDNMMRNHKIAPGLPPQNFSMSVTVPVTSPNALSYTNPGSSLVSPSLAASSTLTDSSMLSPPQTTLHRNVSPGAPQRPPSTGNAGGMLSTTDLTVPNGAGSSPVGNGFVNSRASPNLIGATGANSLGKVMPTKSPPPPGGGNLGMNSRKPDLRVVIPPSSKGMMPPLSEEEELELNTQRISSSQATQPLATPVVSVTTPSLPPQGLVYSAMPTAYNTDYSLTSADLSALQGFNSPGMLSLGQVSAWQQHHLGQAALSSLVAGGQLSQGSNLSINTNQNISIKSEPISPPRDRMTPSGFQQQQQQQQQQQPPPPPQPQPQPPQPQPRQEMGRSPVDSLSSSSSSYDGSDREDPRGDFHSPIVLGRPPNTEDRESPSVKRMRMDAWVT
UniProt Q9C0I1: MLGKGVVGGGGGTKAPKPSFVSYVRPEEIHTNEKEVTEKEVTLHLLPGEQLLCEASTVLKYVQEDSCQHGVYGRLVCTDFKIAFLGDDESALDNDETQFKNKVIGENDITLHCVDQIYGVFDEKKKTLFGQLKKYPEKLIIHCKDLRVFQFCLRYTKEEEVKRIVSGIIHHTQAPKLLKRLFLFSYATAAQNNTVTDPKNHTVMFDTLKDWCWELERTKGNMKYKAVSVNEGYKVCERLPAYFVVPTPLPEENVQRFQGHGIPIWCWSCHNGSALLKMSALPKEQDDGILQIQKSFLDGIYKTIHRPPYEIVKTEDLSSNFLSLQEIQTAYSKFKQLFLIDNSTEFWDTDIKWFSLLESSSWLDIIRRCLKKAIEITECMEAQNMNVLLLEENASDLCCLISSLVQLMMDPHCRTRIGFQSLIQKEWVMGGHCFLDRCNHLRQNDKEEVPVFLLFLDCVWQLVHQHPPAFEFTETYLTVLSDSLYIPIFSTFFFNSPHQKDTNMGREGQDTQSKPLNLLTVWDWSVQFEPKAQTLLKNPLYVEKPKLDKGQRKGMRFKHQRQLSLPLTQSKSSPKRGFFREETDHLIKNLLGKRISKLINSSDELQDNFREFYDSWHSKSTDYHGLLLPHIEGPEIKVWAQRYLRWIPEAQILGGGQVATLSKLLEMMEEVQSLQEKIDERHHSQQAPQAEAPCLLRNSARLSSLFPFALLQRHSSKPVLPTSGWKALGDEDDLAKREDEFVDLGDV
UniProt Q9Y4Z0: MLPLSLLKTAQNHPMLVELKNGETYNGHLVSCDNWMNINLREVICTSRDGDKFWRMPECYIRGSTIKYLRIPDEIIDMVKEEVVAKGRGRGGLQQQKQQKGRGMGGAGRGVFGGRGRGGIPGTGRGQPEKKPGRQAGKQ
UniProt C9JLW8: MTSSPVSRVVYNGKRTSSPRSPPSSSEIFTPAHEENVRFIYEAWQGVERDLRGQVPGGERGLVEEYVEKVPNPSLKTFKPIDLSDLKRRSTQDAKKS
UniProt Q96A72, whole entry: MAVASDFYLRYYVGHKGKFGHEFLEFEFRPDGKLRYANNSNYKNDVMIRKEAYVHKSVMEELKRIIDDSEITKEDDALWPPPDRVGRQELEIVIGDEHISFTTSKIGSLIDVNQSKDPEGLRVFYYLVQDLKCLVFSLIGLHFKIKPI
UniProt Q9Y250: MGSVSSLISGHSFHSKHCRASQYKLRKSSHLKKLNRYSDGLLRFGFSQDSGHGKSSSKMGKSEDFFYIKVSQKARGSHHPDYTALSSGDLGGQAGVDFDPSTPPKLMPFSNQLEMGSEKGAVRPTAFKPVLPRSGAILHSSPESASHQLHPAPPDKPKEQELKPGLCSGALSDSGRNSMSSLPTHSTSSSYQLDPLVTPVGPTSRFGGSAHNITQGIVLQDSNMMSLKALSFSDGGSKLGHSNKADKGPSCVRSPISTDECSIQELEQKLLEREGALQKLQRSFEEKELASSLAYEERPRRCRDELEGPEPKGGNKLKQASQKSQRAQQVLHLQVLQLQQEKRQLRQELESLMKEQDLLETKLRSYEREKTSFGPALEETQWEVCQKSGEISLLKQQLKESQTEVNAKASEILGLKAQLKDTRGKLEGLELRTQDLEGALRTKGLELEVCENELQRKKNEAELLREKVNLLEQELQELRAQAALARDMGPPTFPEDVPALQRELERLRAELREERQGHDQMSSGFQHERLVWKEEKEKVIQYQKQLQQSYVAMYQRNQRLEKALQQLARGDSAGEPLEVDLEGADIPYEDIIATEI
UniProt P56192: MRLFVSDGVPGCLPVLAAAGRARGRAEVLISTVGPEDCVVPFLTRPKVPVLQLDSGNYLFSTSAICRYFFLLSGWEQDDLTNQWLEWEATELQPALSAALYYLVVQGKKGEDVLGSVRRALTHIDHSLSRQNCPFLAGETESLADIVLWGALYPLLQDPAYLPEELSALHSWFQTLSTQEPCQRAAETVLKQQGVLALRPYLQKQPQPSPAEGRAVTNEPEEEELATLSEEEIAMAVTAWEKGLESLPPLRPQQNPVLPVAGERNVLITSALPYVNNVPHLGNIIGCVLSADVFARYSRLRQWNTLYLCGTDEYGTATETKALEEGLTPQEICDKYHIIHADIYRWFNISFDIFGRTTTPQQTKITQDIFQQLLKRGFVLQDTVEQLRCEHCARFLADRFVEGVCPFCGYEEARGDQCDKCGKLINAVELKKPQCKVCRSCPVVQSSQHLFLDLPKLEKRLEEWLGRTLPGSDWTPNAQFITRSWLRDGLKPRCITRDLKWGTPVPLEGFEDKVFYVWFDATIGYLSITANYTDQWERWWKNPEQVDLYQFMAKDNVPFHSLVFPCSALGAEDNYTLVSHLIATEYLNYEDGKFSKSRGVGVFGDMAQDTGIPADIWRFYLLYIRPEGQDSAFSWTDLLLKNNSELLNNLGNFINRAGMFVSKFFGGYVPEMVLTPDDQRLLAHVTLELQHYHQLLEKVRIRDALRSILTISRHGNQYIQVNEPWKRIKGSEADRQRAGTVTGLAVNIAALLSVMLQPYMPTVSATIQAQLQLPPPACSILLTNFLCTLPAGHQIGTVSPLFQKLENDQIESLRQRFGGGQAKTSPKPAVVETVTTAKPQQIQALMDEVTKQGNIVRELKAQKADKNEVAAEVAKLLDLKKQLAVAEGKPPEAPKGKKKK
UniProt O60675: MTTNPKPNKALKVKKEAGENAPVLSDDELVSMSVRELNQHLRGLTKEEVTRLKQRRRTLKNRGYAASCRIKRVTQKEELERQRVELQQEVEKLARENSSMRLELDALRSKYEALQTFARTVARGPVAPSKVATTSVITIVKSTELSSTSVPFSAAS
UniProt Q15691: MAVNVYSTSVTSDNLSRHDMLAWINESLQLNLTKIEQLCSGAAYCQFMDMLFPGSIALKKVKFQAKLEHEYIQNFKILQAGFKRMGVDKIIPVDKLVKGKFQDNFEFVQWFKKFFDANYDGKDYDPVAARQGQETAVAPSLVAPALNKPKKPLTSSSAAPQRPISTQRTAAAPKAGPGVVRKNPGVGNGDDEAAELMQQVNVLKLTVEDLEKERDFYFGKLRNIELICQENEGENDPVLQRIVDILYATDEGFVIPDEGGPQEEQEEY

Each target was assayed with Nc1nc2c(ncn2[C@@H]2O[C@H](COP(=O)(O)OP(=O)(O)OP(=O)(O)O)[C@@H](O)[C@H]2O)c(=O)[nH]1 (assay: dose-dependent thermal stabilisation call (2D-TPP, DLPTP, 10% FDR) (binary (1 = stabilised)); higher = stabilised by the compound). Details: system: Jurkat gel-filtered lysate; concentration range 1-500 µM.

Row | Target | dose-dependent thermal stabilisation call
1 | MAPK1 (UniProt P28482) | inactive: 0
2 | MAEA (UniProt Q7L5Y9) | inactive: 0
3 | MYDGF (UniProt Q969H8) | inactive: 0
4 | MED27 (UniProt Q6P2C8) | inactive: 0
5 | METTL2B (UniProt Q6P1Q9) | inactive: 0
6 | MTMR3 (UniProt Q13615) | inactive: 0
7 | MBD2 (UniProt Q9UBB5) | inactive: 0
8 | MVB12A (UniProt Q96EY5) | active: 1
9 | MYOM2 (UniProt P54296) | inactive: 0
10 | MCM5 (UniProt P33992) | inactive: 0
11 | MACROD1 (UniProt Q9BQ69) | inactive: 0
12 | MAP2K6 (UniProt P52564) | active: 1
13 | MAST4 (UniProt O15021) | inactive: 0
14 | MEF2A (UniProt Q02078) | inactive: 0
15 | MTMR12 (UniProt Q9C0I1) | inactive: 0
16 | METTL25 (UniProt Q8N6Q8) | inactive: 0
17 | MED1 (UniProt Q15648) | inactive: 0
18 | LSM4 (UniProt Q9Y4Z0) | inactive: 0

Look-ups from the entries so far:
METTL2B (UniProt Q6P1Q9) – dose-dependent thermal stabilisation call: inactive: 0
MCM5 (UniProt P33992) – dose-dependent thermal stabilisation call: inactive: 0

(continued)

Row | Target | dose-dependent thermal stabilisation call
19 | MCRIP1 (UniProt C9JLW8) | inactive: 0
20 | MAGOHB (UniProt Q96A72) | inactive: 0
21 | MICAL3 (UniProt Q7RTP6) | inactive: 0
22 | MED23 (UniProt Q9ULK4) | inactive: 0
23 | MAPRE3 (UniProt Q9UPY8) | inactive: 0
24 | MPG (UniProt P29372) | inactive: 0
25 | LZTS1 (UniProt Q9Y250) | inactive: 0
26 | MARS (UniProt P56192) | inactive: 0
27 | MAPK12 (UniProt P53778) | inactive: 0
28 | MAFK (UniProt O60675) | inactive: 0
29 | MDC1 (UniProt Q14676) | inactive: 0
30 | MCM6 (UniProt Q14566) | active: 1
31 | MTOR (UniProt P42345) | inactive: 0
32 | MTA3 (UniProt Q9BTC8) | active: 1
33 | MTA2 (UniProt O94776) | inactive: 0
34 | MCM3 (UniProt P25205) | inactive: 0
35 | MON1B (UniProt Q7L1V2) | inactive: 0
36 | MAPRE1 (UniProt Q15691) | inactive: 0
